Measured values published in publication PMC8357983.
Results are given in words; binding and its absence hold for the method and conditions named. Binding seen in cells or lysates may run through a third protein. Some binding calls cover weakened binding; strength is not graded here.

Protein sequences, listed by entry. Tags and fused reporters are not part of them.
UniProt O75317: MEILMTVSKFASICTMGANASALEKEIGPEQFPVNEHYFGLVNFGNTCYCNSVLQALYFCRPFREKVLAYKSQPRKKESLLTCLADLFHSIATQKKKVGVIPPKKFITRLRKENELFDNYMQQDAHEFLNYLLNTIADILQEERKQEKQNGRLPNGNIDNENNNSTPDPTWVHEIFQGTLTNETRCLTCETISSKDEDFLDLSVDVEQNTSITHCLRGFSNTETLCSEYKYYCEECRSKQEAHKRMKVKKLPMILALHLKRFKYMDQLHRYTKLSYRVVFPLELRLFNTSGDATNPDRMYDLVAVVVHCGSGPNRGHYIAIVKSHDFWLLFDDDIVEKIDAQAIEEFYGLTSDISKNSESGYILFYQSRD
UniProt P62068: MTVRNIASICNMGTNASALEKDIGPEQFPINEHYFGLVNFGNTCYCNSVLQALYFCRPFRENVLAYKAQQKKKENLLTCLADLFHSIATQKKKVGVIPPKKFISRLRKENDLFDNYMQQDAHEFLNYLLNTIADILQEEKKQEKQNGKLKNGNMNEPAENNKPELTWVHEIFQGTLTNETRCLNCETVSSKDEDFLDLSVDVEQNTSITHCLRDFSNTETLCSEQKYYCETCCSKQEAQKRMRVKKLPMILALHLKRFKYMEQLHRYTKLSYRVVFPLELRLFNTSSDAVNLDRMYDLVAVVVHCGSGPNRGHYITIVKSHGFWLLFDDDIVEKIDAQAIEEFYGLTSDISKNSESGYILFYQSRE

Assays:
[1] = target: T1, PPM1B (as used in the co-immunoprecipitation with USP46) (UniProt O75688); assay: co-IP; USP46 with PPM1B (Supplementary Fig. 3f); cells, tags and antibodies not given
T1 sequence: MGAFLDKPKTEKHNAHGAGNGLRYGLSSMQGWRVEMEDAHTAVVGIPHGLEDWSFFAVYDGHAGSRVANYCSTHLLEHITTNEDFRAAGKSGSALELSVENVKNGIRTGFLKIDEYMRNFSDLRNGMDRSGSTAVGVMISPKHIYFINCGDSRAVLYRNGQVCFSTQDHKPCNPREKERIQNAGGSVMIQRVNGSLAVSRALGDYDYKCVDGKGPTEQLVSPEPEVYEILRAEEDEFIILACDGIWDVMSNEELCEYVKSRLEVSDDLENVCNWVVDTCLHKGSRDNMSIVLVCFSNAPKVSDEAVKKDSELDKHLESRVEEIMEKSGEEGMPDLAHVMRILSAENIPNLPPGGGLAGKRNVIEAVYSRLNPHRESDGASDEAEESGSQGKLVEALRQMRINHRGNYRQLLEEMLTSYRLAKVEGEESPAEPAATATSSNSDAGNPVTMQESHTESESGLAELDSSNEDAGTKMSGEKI

[2] = target: 3×Flag-tagged human USP12 (human) (UniProt O75317); assay: co-IP; lysates of cells with or without USP12-Flag (Western and IP lysis buffer) immunoprecipitated with antibody and Protein G-agarose overnight; endogenous PPM1B detected by immunoblotting

“3×Flag-tagged human USP46 (from UniProt P62068 1-366) (enzyme)” was tested, and the binding [1] was “binds”.

B1: endogenous PPM1B (enzyme, UniProt O75688 1-479)
chain: T1 sequence
With B1 the binding [2] was “binds”.
